These are yes or no findings as the source states them, for the method shown. Some binding calls cover weakened binding; strength is not graded here.
Experiments:
[1] = molecular target: Beclin1 (human (endogenous in HepG2)) (UniProt Q14457); experiment: native gel or EMSA; native-PAGE of HepG2 lysate (30 ug protein/well) followed by Western blot with anti-HMGB1; cells treated with CP
[2] = molecular target: Beclin1 (human (endogenous in HepG2)) (UniProt Q14457); experiment: native gel or EMSA; native-PAGE of HepG2 lysate (30 ug protein/well) followed by Western blot with anti-HMGB1; cells treated with CP-Mh
[3] = molecular target: Beclin1 (human (endogenous in HepG2)) (UniProt Q14457); experiment: native gel or EMSA; native-PAGE of HepG2 lysate (30 ug protein/well) followed by Western blot with anti-HMGB1; cells treated with CP-ANI

Chains of the proteins cited; added tags and fusions are not shown.
UniProt Q14457: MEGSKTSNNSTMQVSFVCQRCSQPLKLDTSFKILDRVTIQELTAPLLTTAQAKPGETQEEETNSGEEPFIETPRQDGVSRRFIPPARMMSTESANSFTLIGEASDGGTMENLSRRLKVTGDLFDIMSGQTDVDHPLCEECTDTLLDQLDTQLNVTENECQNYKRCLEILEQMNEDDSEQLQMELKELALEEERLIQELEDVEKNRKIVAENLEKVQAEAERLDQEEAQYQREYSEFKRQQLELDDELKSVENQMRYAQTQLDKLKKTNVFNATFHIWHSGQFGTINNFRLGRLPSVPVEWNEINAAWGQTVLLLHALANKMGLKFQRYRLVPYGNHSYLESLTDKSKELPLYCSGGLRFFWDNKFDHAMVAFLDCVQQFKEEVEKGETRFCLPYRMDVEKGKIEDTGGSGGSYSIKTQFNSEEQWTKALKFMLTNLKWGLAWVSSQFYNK
UniProt P09429: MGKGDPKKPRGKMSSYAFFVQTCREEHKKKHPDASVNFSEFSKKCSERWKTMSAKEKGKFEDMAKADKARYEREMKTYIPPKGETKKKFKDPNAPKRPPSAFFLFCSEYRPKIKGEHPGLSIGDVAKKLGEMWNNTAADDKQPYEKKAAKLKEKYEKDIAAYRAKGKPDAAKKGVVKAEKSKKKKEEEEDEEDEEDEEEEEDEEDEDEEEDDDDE

binding [1]: binds
Substance: HMGB1 (from UniProt P09429 1-215)
binding [2]: no binding (condition: cells treated with CP-Mh)
binding [3]: no binding (condition: cells treated with CP-ANI)
